Residue numbers refer to the chain shown, from its start. These are yes or no findings as the source states them, for the method shown. Some results given as binding are weak or reduced against the parent protein; the word gives no strength. For some assays here: Sequences can lack the tags named with a protein. One block for each binder: values may come before it.
Experiments:
CDH17 on cells [1] = target: CDH17 on cells (UniProt Q12864); test: flow cytofluorimetry on HEK293 transfectants
TROP2 on cells = TROP2 on cells (UniProt P09758); test: flow cytofluorimetry on HEK293 transfectants
[2] = target: Fibroblast activation protein alpha (FAP) on DLD1-FAP cells (UniProt Q12884); test: flow cytofluorimetry on DLD1 cells electroporated with FAP mRNA (FAP TM DLD1) against Mock DLD1 and control
CDH17 on cells [3] = target: CDH17 on cells (UniProt Q12864); test: told of the NFAT reporter assay with Jurkat reporter cells and DLD1 cells
CDH17 on cells [4] = target: CDH17 on cells (UniProt Q12864); test: flow cytofluorimetry on HEK293 cells transfected with CDH17, 5 ug/ml, Fc G1G4G1 (panel C)

Sequences of proteins named here, by UniProt entry; tags and fusion partners are left off. Residues count along the entry.
UniProt Q12864, residues 23-832: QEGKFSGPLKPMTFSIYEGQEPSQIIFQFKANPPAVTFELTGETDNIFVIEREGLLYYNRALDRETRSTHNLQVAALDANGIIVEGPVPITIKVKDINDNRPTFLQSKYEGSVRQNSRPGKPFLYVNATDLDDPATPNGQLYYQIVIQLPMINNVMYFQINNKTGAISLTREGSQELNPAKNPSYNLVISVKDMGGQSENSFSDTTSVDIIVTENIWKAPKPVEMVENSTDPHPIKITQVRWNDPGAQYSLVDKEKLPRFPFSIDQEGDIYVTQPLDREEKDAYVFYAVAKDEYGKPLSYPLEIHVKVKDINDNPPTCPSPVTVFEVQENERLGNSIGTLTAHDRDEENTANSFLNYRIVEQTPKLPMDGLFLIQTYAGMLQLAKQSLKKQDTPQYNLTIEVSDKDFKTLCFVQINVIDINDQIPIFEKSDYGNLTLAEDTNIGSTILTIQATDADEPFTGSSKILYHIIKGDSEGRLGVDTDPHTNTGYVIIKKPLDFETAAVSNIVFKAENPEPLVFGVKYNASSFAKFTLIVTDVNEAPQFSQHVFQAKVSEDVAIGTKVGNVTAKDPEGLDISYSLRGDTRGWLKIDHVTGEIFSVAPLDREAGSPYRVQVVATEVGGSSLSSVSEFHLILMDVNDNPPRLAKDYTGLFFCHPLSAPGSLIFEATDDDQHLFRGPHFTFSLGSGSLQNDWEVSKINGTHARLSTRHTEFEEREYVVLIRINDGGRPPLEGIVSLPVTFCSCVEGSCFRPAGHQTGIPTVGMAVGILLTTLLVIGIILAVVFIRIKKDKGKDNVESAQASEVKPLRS
UniProt P09758, residues 27-323: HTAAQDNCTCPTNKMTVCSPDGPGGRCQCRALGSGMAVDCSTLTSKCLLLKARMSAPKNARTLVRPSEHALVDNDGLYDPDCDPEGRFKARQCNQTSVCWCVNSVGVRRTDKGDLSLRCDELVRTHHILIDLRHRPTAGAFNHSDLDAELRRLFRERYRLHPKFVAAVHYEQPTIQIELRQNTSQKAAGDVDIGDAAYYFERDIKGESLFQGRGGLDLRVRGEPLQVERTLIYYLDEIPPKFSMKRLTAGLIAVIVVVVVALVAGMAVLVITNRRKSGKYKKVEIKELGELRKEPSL
UniProt Q12884: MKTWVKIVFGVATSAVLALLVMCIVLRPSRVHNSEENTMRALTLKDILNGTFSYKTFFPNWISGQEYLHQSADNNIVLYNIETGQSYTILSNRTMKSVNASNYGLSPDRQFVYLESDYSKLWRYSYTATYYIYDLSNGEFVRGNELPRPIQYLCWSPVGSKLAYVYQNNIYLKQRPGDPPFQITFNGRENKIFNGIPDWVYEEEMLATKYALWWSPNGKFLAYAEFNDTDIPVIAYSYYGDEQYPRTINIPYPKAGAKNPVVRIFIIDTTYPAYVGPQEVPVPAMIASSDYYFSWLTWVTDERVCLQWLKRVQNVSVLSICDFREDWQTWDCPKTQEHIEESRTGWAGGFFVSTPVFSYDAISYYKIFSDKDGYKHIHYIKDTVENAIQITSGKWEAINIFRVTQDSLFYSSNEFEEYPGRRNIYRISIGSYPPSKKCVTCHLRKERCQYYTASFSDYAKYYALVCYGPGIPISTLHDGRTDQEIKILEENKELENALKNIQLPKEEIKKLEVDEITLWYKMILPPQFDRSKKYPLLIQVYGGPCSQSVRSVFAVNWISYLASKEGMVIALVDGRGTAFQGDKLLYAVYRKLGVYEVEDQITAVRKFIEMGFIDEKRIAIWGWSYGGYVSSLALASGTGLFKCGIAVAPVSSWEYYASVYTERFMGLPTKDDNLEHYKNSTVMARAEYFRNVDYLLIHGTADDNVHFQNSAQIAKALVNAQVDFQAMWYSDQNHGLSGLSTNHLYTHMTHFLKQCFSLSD

binding (CDH17 on cells [1]): binds
binding (TROP2 on cells): binds
B1: h8h10Te (possessing the parental anti-CD3 Fv) (protein)
light: DIQMTQSPSSLSASVGDRVTITCRASENIDNYLAWYQQKPGKVPKLLIYAATNLADGVPSRFSGSGSGTDFTLTISSLQPEDVATYYCQHYYSNQLTFGQGTKLEIKGGGGSGGGGSGGGGSEVQLVESGGGLVQPGGSLRLSCAASGFTFSTYTMSWVRQAPGKGLEWVANINSDGYNIYYSDSVKGRFTISRDNAKNSLYLQMNSLRAEDTAVYYCVRCSYYSYDYFDYWGQGTLVTVSSPAGGGGGSDIQMTQSPSSLSASVGDRVTITCRASQDIRNYLNWYQQKPGKAPKLLIYYTSRLESGVPSRFSGSGSGTDYTLTISSLQPEDFATYYCQQGNTLPWTFGQGTKVEIKGAPGGGTHTCPPCPAPELLGGPSVFLFPPKPKDTLMISRTPEVTCVVVDVSQEDPEVQFNWYVDGVEVHNAKTKPREEQFNSTYRVVSVLTVLHQDWLNGKEYKCKVSNKGLPSSIEKTISKAKGQPREPQVYTLPPSREEMTKNQVSLSCAVKGFYPSDIAVEWESNGQPENNYKTTPPVLDSDGSFFLVSKLTVDKSRWQQGNVFSCSVMHEALHNHYTQKSLSLSPGK
heavy: EVQLLESGGGLVQPGGSLRLSCAASGFTFSSYAMSWVRQAPGKGLEWVAVIDSNGGSTYYPDTVKDRFTISRDNSKNTLYLQMNSLRAEDTAVYYCSSYTNLGAYWGQGTLVTVSAGGGGSGGGGSGGGGSDIQMTQSPSSLSASVGDRVTITCRASQDISGYLNWLQQKPGKAIKRLIYTTSTLDSGVPSRFSGSGSGTDFTLTISSLQPEDFATYYCLQYASSPFTFGGGTKVEIKPAGGGGGSEVQLVESGGGLVQPGGSLRLSCAASGYSFTGYTMNWVRQAPGKGLEWVALINPYKGVSTYNQKFKDRFTISVDKSKNTAYLQMNSLRAEDTAVYYCARSGYYGDSDWYFDVWGQGTLVTVSSGAPGGGTHTCPPCPAPELLGGPSVFLFPPKPKDTLMISRTPEVTCVVVDVSQEDPEVQFNWYVDGVEVHNAKTKPREEQFNSTYRVVSVLTVLHQDWLNGKEYKCKVSNKGLPSSIEKTISKAKGQPREPQVYTLPPSREEMTKNQVSLWCLVKGFYPSDIAVEWESNGQPENNYKTTPPVLDSDGSFFLYSKLTVDKSRWQQGNVFSCSVMHEALHNHYTQKSLSLSPGK

binding [2]: binds
B2: hB2Ta (bispecific antibody)
light: DIQMTQSPSSLSASVGDRVTITCQASQDISNYLNWYQQKPGKAPKLLIYYTSRLESGVPSRFSGSGSGTDYTLTISSLQPEDFATYYCQQGNTLPWTFGQGTKVEIKGAPGGGTHTCPPCPAPELLGGPSVFLFPPKPKDTLMISRTPEVTCVVVDVSQEDPEVQFNWYVDGVEVHNAKTKPREEQFNSTYRVVSVLTVLHQDWLNGKEYKCKVSNKGLPSSIEKTISKAKGQPREPQVYTLPPSREEMTKNQVSLSCAVKGFYPSDIAVEWESNGQPENNYKTTPPVLDSDGSFFLVSKLTVDKSRWQQGNVFSCSVMHEALHNHYTQKSLSLSPGK
heavy: QVQLVQSGAEVKKPGASVKVSCKASGYSFTDYTMNWVRQAPGQGLEWMGVINPNHGISSYAQKFQGRVTMTRDTSTSTVYMELSSLRSEDTAVYYCVRRKISYDYDEGYAMDYWGQGTLVTVSSGGGGSGGGGSGGGGSDIVMTQSPDSLAVSLGERATINCKSSQNLLNSSNQKNYLAWYQQKPGQPPKLLVFFAATRESGVPDRFSGSGSGTDFTLTISSLQAEDVAVYYCQQHYSTPWTFGGGTKLEIKPAGGGGSEVQLVESGGGLVQPGGSLRLSCAASGYSFTGYTMNWVRQAPGKGLEWVALINPYKGVSTYNQKFKDRFTISVDKSKNTAYLQMNSLRAEDTAVYYCARSGYYGDSDWYFDVWGQGTLVTVSSGAPGGGTHTCPPCPAPELLGGPSVFLFPPKPKDTLMISRTPEVTCVVVDVSQEDPEVQFNWYVDGVEVHNAKTKPREEQFNSTYRVVSVLTVLHQDWLNGKEYKCKVSNKGLPSSIEKTISKAKGQPREPQVYTLPPSREEMTKNQVSLWCLVKGFYPSDIAVEWESNGQPENNYKTTPPVLDSDGSFFLYSKLTVDKSRWQQGNVFSCSVMHEALHNHYTQKSLSLSPGK

B3: h10Ta-wt (bispecific antibody)
light: B2 light with Q24R, S30R
heavy: B1 heavy
notes: also called h10Ta with the parental Fv; h10Ta (wt anti-CD3 Fv)
binding (CDH17 on cells [3]): binds

binding (CDH17 on cells [4]): binds
B4: TriAx-A with h10v2 scFv, Fc G1G4G1 (bispecific antibody)
light: B2 light
heavy: B1 heavy
